Reference: PMC7542178
No constants are given. Whether binding was seen depends on the method and setting. In cells and extracts the contact can be indirect.

Target: T1, biotinylated scrambled N-NAM
T1 sequence (peptide, biotinylated (site not stated)): GLIRWNRPPRNP
Test: pull-down; HUVECs (methods: HUVEC lysates) incubated with bt-N-NAM (25-500 nM) or bt-scN-NAM (200 nM) for 3 h; streptavidin agarose beads 24 h at 4 °C; immunoblot with anti-Ninj1; only the target purified

binding: no binding (tested: 200 nM)
B1: Nerve injury-induced protein 1 (Ninjurin 1), endogenous in HUVECs (protein, UniProt Q92982 1-152)
chain: MDSGTEEYELNGGLPPGTPGSPDASPARWGWRHGPINVNHYASKKSAAESMLDIALLMANASQLKAVVEQGPSFAFYVPLVVLISISLVLQIGVGVLLIFLVKYDLNNPAKHAKLDFLNNLATGLVFIIVVVNIFITAFGVQKPLMDMAPQQ
